These are yes or no findings as the source states them, for the method shown. In cells and extracts the contact can be indirect.
Molecular target: C4H-nVenus (Petunia inflata)
Assay: split reporter; BiFC with nVenus (bait) and cVenus (prey) fusions co-expressed by agroinfiltration in N. benthamiana leaves with an ER marker (mRFP); confocal microscopy 2-3 days after infiltration

binding: no binding
B1: CYP71E1 from Sorghum bicolor (negative control of the BiFC assay) (enzyme, UniProt O48958 1-531)
chain: MATTATPQLLGGSVPQQWQTCLLVLLPVLLVSYYLLTSRSRNRSRSGKLGGAPRLPPGPAQLPILGNLHLLGPLPHKNLRELARRYGPVMQLRLGTVPTVVVSSAEAAREVLKVHDVDCCSRPASPGPKRLSYDLKNVGFAPYGEYWREMRKLFALELLSMRRVKAACYAREQEMDRLVADLDRAAASKASIVLNDHVFALTDGIIGTVAFGNIYASKQFAHKERFQHVLDDAMDMMASFSAEDFFPNAAGRLADRLSGFLARRERIFNELDVFFEKVIDQHMDPARPVPDNGGDLVDVLINLCKEHDGTLRFTRDHVKAIVLDTFIGAIDTSSVTILWAMSELMRKPQVLRKAQAEVRAAVGDDKPRVNSEDAAKIPYLKMVVKETLRLHPPATLLVPRETMRDTTICGYDVPANTRVFVNAWAIGRDPASWPAPDEFNPDRFVGSDVDYYGSHFELIPFGAGRRICPGLTMGETNVTFTLANLLYCYDWALPGAMKPEDVSMEETGALTFHRKTPLVVVPTKYKNRRAA

Reference: paper PMC11446795
